# Laboratory results as given in US11911439B2, “Beta-casein A2 and prevention of inflammation of the bowel” (THE A2 MILK COMPANY LIMITED, priority 2013, dated 2024).
# How the values were obtained:
# [1] = test system: Caco-2 Gut epithelial cells; assay: cells; conditions: Homo sapiens, Caco-2, read-out: IC50 inhibition of cysteine uptake
# Description: (§1) Pre-treatment in cells was performed for different time points for 30 min, 4, 24 and 48 h as described previously (Trivedi M., et al.; Mol. Pharm., 2014). Briefly, SH-SY5Y human neuronal cells and Caco-2 Gut epithelial cells were plated in six-well plates and were pretreated with drugs and incubated for various times prior to measuring uptake. Media were aspirated and cells were washed with 600 μL of HBSS at 37° C. Non-radioactive HBSS was aspirated, replaced with 600 μL of 37° C. HBSS containing [^35S]-cysteine, (1 μCi/1 mL), 10 μM unlabelled cysteine and 100 μM DTT, and the cells were incubated for 5 min. The [^35S]-cysteine/HBSS mixture was aspirated and treatment was terminated by two washes with ice-cold HBSS. Cells were then lysed with 600 μL of dH2O, scraped, collected in 1.5 mL microcentrifuge tubes, and sonicated for 10 s. 100 μL of each sample was aliquoted for protein assay. 200 μL of each sample (in triplicate) was aliquoted into scintillation vials with 4 mL of scintillation fluid, vortexed, and counted for radioactivity, normalized against protein content. […] Each * symbol in these Figures indicates a statistically significant difference (p<0.05) compared against the untreated control, and each #symbol indicates a statistically significant difference (p<0.005) compared against the untreated control.
# [2] = test system: SH-SY5Y human neuronal cells; assay: cells
# Description: as §1
# SH-SY5Y neuronal cells = assay: Intracellular cysteine, GSH and methylation metabolites by HPLC; format: cell-based, human
# Description: Briefly, SH-SY5Y neuronal cells were grown to confluence in α-MEM. Media was aspirated and the cells were washed twice with 1 mL of ice cold HBSS. HBSS was aspirated and 0.6 mL ice cold dH2O was added to the cells. The cells were scraped from the flask/dish and suspended in dH2O. The cell suspension was sonicated for 15 s on ice and 100 μL of the suspension was used to determine the protein content. The remaining lysate was added to a microcentrifuge tube and an equal volume of 0.4 N perchloric acid was added, followed by incubation on ice for 5 min. Samples were centrifuged at 5,000×g and the supernatant transferred to new microcentrifuge tubes. 100 μL of sample was added to a conical micro-autosampler vial and kept at 4° C. in the autosampler cooling tray. 10 μL of this sample was injected into the HPLC system.
# The separation of redox and methylation pathway metabolites was accomplished using an Agilent Eclipse XDB-C8 analytical column (3×150 mm; 3.5 μm) and an Agilent Eclipse XDB-C8 (4.6×12.5 mm; 5 μm) guard column. Two mobile phases were used: Mobile Phase A was 0% acetonitrile, 25 mM sodium phosphate, 1.4 mM 1-octanesulfonic acid, adjusted to pH 2.65 with phosphoric acid. Mobile Phase B was 50% acetonitrile. […] Sample concentrations were determined from the peak areas of metabolites using standard calibration curves and ESA-supplied HPLC software. […]
structure (smiles),measurement,setting,value
CN1CC[C@]23c4c5ccc(O)c4O[C@H]2[C@@H](O)C=C[C@H]3[C@H]1C5 [morphine],IC50,[1],6.38 nM
same,IC50,"[2]; Homo sapiens, SH-SY5Y, read-out: IC50 inhibition of cysteine uptake",0.16 nM
same,receptor mediation of cysteine uptake inhibition,"[2]; blockade by selective μ-antagonist (CTAP), not by delta antagonist (NTI)",μ-opioid receptor mediated
same,time at which inhibition of cysteine uptake was fully developed,[2]; neuronal cells and GI epithelial cells (FIG. 6),30 min
same,GSH levels,"SH-SY5Y neuronal cells; 30 min, 4 h, 24 h",time-dependent decreases
same,GSH/GSSG ratio (redox status),SH-SY5Y neuronal cells; over time,decreased
